{"source": "the supplement of paper PMC8728848", "assay_in_all_cases": "glycan array binding signal (z-score within array); higher = stronger binding", "conditions_in_all_cases": "glycan notation: IUPAC condensed, linker removed", "key": {"Fuc(b1-3)GlcNAc": {"target": "Fuc(b1-3)GlcNAc", "outline": "(§1)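 Glycan array data came from 3228 arrays in the Consortium for Functional Glycomics database, and only arrays with an available protein sequence were kept. Glycan names were put into IUPAC-condensed notation, and columns mapping to the same glycan were averaged. The binding signal is a within-array Z-score, averaged across arrays of one protein sequence run at different concentrations or buffers and across linkers. A negative Z-score can be read as non-binding.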"}, "Gal(a1-2)Gal": {"target": "Gal(a1-2)Gal", "outline": "as §1"}, "Gal(a1-3)Gal": {"target": "Gal(a1-3)Gal", "outline": "as §1"}, "Gal(a1-3)Gal(b1-3)Glc": {"target": "Gal(a1-3)Gal(b1-3)Glc", "outline": "as §1"}, "Gal(a1-3)Gal(b1-3)GlcNAc": {"target": "Gal(a1-3)Gal(b1-3)GlcNAc", "outline": "as §1"}, "Gal(a1-3)Gal(b1-4)GlcNAc": {"target": "Gal(a1-3)Gal(b1-4)GlcNAc", "outline": "as §1"}, "[1]": {"target": "Gal(a1-3)Gal(b1-4)[Fuc(a1-3)]GalNAc", "outline": "as §1"}, "Gal(a1-3)GlcNAc": {"target": "Gal(a1-3)GlcNAc", "outline": "as §1"}, "[2]": {"target": "Gal(a1-3)[Gal(a1-4)]Gal(b1-4)GlcNAc", "outline": "as §1"}, "Gal(a1-4)Gal(b1-4)Gal": {"target": "Gal(a1-4)Gal(b1-4)Gal", "outline": "as §1"}, "Gal(a1-4)Gal(b1-4)GalNAc": {"target": "Gal(a1-4)Gal(b1-4)GalNAc", "outline": "as §1"}, "Gal(a1-4)GlcNAc": {"target": "Gal(a1-4)GlcNAc", "outline": "as §1"}, "Gal(a1-6)Glc": {"target": "Gal(a1-6)Glc", "outline": "as §1"}, "Gal(b1-2)Gal": {"target": "Gal(b1-2)Gal", "outline": "as §1"}, "Gal(b1-3)Gal": {"target": "Gal(b1-3)Gal", "outline": "as §1"}, "Gal(b1-3)GalNAc": {"target": "Gal(b1-3)GalNAc", "outline": "as §1"}, "[3]": {"target": "Gal(b1-3)GalNAc(b1-3)Gal(a1-4)Gal(b1-4)Glc", "outline": "as §1"}, "[4]": {"target": "Gal(b1-3)GalNAc(b1-3)Gal(b1-4)Glc", "outline": "as §1"}, "[5]": {"target": "Gal(b1-3)GalNAc(b1-3)Gal(b1-4)GlcNAc", "outline": "as §1"}, "[6]": {"target": "Gal(b1-3)GalNAc(b1-4)Gal(b1-4)Glc", "outline": "as §1"}, "[7]": {"target": "Gal(b1-3)GalNAc(b1-4)[Neu5Ac(a2-3)]Gal(b1-4)Glc", "outline": "as §1"}, "[8]": {"target": "Gal(b1-3)GlcNAc(b1-3)Gal(b1-3)GlcNAc", "outline": "as §1"}, "[9]": {"target": "Gal(b1-3)[Fuc(a1-4)]GlcNAc", "outline": "as §1"}, "[10]": {"target": "Gal(b1-3)[Fuc(a1-4)]GlcNAc(b1-3)Gal(b1-3)[Fuc(a1-4)]GlcNAc", "outline": "as §1"}, "[11]": {"target": "Gal(b1-3)[Fuc(a1-4)]GlcNAc(b1-3)Gal(b1-4)GlcNAc", "outline": "as §1"}, "[12]": {"target": "Gal(b1-3)[Fuc(a1-4)]GlcNAc(b1-3)Gal(b1-4)[Fuc(a1-3)]GlcNAc", "outline": "as §1"}, "[13]": {"target": "Gal(b1-3)[GlcNAc(b1-6)]GalNAc", "outline": "as §1"}, "[14]": {"target": "Gal(b1-3)[GlcNAc(b1-6)]GlcNAc", "outline": "as §1"}, "[15]": {"target": "Gal(b1-3)[Neu5Ac(a2-6)]GalNAc", "outline": "as §1"}, "[16]": {"target": "Gal(b1-3)[Neu5Ac(a2-6)]GlcNAc", "outline": "as §1"}, "[17]": {"target": "Gal(b1-3)[Neu5Ac(a2-6)]GlcNAc(a1-4)Gal(b1-4)Glc", "outline": "as §1"}, "[18]": {"target": "Gal(b1-3)[Neu5Ac(b2-6)]GlcNAc", "outline": "as §1"}, "[19]": {"target": "Gal(b1-4)GalNAc(a1-3)[Fuc(a1-2)]Gal(b1-4)GlcNAc", "outline": "as §1"}, "[20]": {"target": "Gal(b1-4)GalNAc(b1-3)[Fuc(a1-2)]Gal(b1-4)GlcNAc", "outline": "as §1"}, "Gal(b1-4)Glc": {"target": "Gal(b1-4)Glc", "outline": "as §1"}, "Gal(b1-4)Glc6S": {"target": "Gal(b1-4)Glc6S", "outline": "as §1"}, "Gal(b1-4)GlcNAc": {"target": "Gal(b1-4)GlcNAc", "outline": "as §1"}, "[21]": {"target": "Gal(b1-4)GlcNAc(b1-2)Man(a1-3)[Gal(b1-4)GlcNAc(b1-2)Man(a1-6)]Man(b1-4)GlcNAc(b1-4)GlcNAc", "outline": "as §1"}, "[22]": {"target": "Gal(b1-4)GlcNAc(b1-3)Gal(b1-3)GlcNAc", "outline": "as §1"}, "[23]": {"target": "Gal(b1-4)GlcNAc(b1-3)Gal(b1-4)Glc", "outline": "as §1"}, "[24]": {"target": "Gal(b1-4)GlcNAc(b1-3)Gal(b1-4)GlcNAc", "outline": "as §1"}, "[25]": {"target": "Gal(b1-4)GlcNAc(b1-3)Gal(b1-4)GlcNAc(b1-3)Gal(b1-4)GlcNAc", "outline": "as §1"}, "[26]": {"target": "Gal(b1-4)GlcNAc(b1-3)Gal(b1-4)[Fuc(a1-3)]GlcNAc(b1-3)Gal(b1-4)[Fuc(a1-3)]GlcNAc", "outline": "as §1"}, "[27]": {"target": "Gal(b1-4)GlcNAc(b1-3)GalNAc", "outline": "as §1"}, "[28]": {"target": "Gal(b1-4)GlcNAc(b1-3)[Gal(b1-4)GlcNAc(b1-6)]GalNAc", "outline": "as §1"}}, "note": "The other results are listed elsewhere or left out.", "data": [{"binder": "C-Reactive Protein (Homo sapiens), P02741 (protein) MEKLLCFLVLTSLSHAFGQTDMSRKAFVFPKESDTSYVSLKAPLTKPLKAFTVCLHFYTELSSTRGYSIFSYATKRQDNEILIFWSKDIGYSFTVGGSEILFEVPEVTVAPVHICTSWESASGIVEFWVDGKPRVRKSLKKGYTVGAEASIILGQEQDSFGGNFEGSQSLVGDIGNVNMWDFVLSPDEINTIYLGGPFSPNVLNWRALKYEVQGEVFTKPQLWP", "values": [{"measurement": "glycan array binding signal (z-score)", "setting": "Fuc(b1-3)GlcNAc", "result": -0.437}, {"measurement": "glycan array binding signal (z-score)", "setting": "Gal(a1-2)Gal", "result": -0.469}, {"measurement": "glycan array binding signal (z-score)", "setting": "Gal(a1-3)Gal", "result": -0.595}, {"measurement": "glycan array binding signal (z-score)", "setting": "Gal(a1-3)Gal(b1-3)Glc", "result": 0.459}, {"measurement": "glycan array binding signal (z-score)", "setting": "Gal(a1-3)Gal(b1-3)GlcNAc", "result": -0.59}, {"measurement": "glycan array binding signal (z-score)", "setting": "Gal(a1-3)Gal(b1-4)GlcNAc", "result": -0.692}, {"measurement": "glycan array binding signal (z-score)", "setting": "[1]", "result": -0.642}, {"measurement": "glycan array binding signal (z-score)", "setting": "Gal(a1-3)GlcNAc", "result": -0.563}, {"measurement": "glycan array binding signal (z-score)", "setting": "[2]", "result": -0.49}, {"measurement": "glycan array binding signal (z-score)", "setting": "Gal(a1-4)Gal(b1-4)Gal", "result": -0.603}, {"measurement": "glycan array binding signal (z-score)", "setting": "Gal(a1-4)Gal(b1-4)GalNAc", "result": -0.598}, {"measurement": "glycan array binding signal (z-score)", "setting": "Gal(a1-4)GlcNAc", "result": -0.071}, {"measurement": "glycan array binding signal (z-score)", "setting": "Gal(a1-6)Glc", "result": -0.456}, {"measurement": "glycan array binding signal (z-score)", "setting": "Gal(b1-2)Gal", "result": -0.182}, {"measurement": "glycan array binding signal (z-score)", "setting": "Gal(b1-3)Gal", "result": -0.554}, {"measurement": "glycan array binding signal (z-score)", "setting": "Gal(b1-3)GalNAc", "result": -0.176}, {"measurement": "glycan array binding signal (z-score)", "setting": "[3]", "result": -0.576}, {"measurement": "glycan array binding signal (z-score)", "setting": "[4]", "result": -0.33}, {"measurement": "glycan array binding signal (z-score)", "setting": "[5]", "result": -0.465}, {"measurement": "glycan array binding signal (z-score)", "setting": "[6]", "result": -0.504}, {"measurement": "glycan array binding signal (z-score)", "setting": "[7]", "result": -0.315}, {"measurement": "glycan array binding signal (z-score)", "setting": "[8]", "result": 1.62}, {"measurement": "glycan array binding signal (z-score)", "setting": "[9]", "result": -0.611}, {"measurement": "glycan array binding signal (z-score)", "setting": "[10]", "result": 0.76}, {"measurement": "glycan array binding signal (z-score)", "setting": "[11]", "result": -0.4}, {"measurement": "glycan array binding signal (z-score)", "setting": "[12]", "result": -0.468}, {"measurement": "glycan array binding signal (z-score)", "setting": "[13]", "result": 0.493}, {"measurement": "glycan array binding signal (z-score)", "setting": "[14]", "result": -0.424}, {"measurement": "glycan array binding signal (z-score)", "setting": "[15]", "result": -0.455}, {"measurement": "glycan array binding signal (z-score)", "setting": "[16]", "result": -0.366}, {"measurement": "glycan array binding signal (z-score)", "setting": "[17]", "result": -0.13}, {"measurement": "glycan array binding signal (z-score)", "setting": "[18]", "result": -0.64}, {"measurement": "glycan array binding signal (z-score)", "setting": "[19]", "result": -0.454}, {"measurement": "glycan array binding signal (z-score)", "setting": "[20]", "result": -0.521}, {"measurement": "glycan array binding signal (z-score)", "setting": "Gal(b1-4)Glc", "result": -0.466}, {"measurement": "glycan array binding signal (z-score)", "setting": "Gal(b1-4)Glc6S", "result": 0.381}, {"measurement": "glycan array binding signal (z-score)", "setting": "Gal(b1-4)GlcNAc", "result": 0.3}, {"measurement": "glycan array binding signal (z-score)", "setting": "[21]", "result": -0.647}, {"measurement": "glycan array binding signal (z-score)", "setting": "[22]", "result": 0.715}, {"measurement": "glycan array binding signal (z-score)", "setting": "[23]", "result": 0.824}, {"measurement": "glycan array binding signal (z-score)", "setting": "[24]", "result": 0.622}, {"measurement": "glycan array binding signal (z-score)", "setting": "[25]", "result": 0.148}, {"measurement": "glycan array binding signal (z-score)", "setting": "[26]", "result": 0.095}, {"measurement": "glycan array binding signal (z-score)", "setting": "[27]", "result": 0.197}, {"measurement": "glycan array binding signal (z-score)", "setting": "[28]", "result": 0.275}]}]}
